# According to PubChem BioAssay AID493014 (National Center for Advancing Translational Sciences (NCATS), 2011):
# The campaign covered roughly 340,000 compounds. About 170 (0.05%) were called active. The shares of active, inactive and inconclusive entries below differ from those in the screen. The call rests on the fitted dose curve; in most records, active means well fitted inhibition curve with a large enough effect in the signal ratio, with a control signal flat (not every such curve was filed as active); inconclusive means small, poorly fitted or top-dose-only effect, or effect the other way, or a change in a side signal; inactive means flat fitted curve, though single readings scatter; the % refers to the signal ratio. Where the call is inconclusive, the potency comes from a doubtful curve fit.
# Assay: qHTS Assay to Find Inhibitors of Chronic Active B-Cell Receptor Signaling;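 on activity change, negative = inhibition: plate controls were basal doxycycline-induced cells for no effect and cells given 10 µM MG132 for full effect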
# Details: ABC-DLBCL IkBa-CBG/CBR reporter, luminescence ratio (green luciferase fused to IkBa over red control in TMD8 lymphoma cells), 4 h; activity change, negative = inhibition: at 46.1 µM (top of the series) unless noted
# How it was run: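 TMD8 ABC-DLBCL cells carrying doxycycline-inducible green luciferase fused to IkappaBalpha plus unfused red luciferase were exposed to compounds (up to 46 uM) for 4 hrs at 37C. Activity came from the overlap-corrected green/red luminescence ratio.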
# Potency means the concentration at half of the fitted maximal effect.
Structure (SMILES),"activity change, negative = inhibition",Potency
Cc1cccc(NC(=O)c2oc3ccc(S(=O)(=O)N4CCC5(CC4)OCCO5)cc3c2C)c1C,inactive,–
O=C(Nc1ccccc1)O/N=C/c1ccc(F)cc1,–,"inconclusive: 5.62 µM [rising, single point]"
O=C(Cn1ccc([N+](=O)[O-])n1)Nc1nc2ccccc2s1,–,"inconclusive: 35.5 µM [rising, single point]"
CC1(C)CC(=O)C(C=Nc2ccccc2Sc2ccccc2)=C(O)C1,inconclusive: 10.2%,–
COc1ccc(C(=O)Nc2nc(CC(=O)NCCc3cccc(OC)c3)cs2)cc1,–,"inconclusive: 18.4 µM [falling, partial curve, poor fit]"
CCOc1ccccc1C1C(C(N)=O)=C(C)Nc2nc(-c3ccc(OC)cc3)nn21 (stereo not given),–,"inconclusive: 20 µM [falling, single point]"
NC(=O)c1nsc(C(=O)N(Cc2ccccc2F)C(C(=O)NCC2CCCO2)c2ccc(F)cc2)c1N (stereo not given),inactive,–
Cc1ccccc1NS(=O)(=O)c1ccc2c3c(cccc13)C(=O)N2C,–,"inconclusive: 15.8 µM [falling, single point]"
O=C(Nc1ccc(-c2nc3ccccc3[nH]2)cc1)c1ccco1,–,"inconclusive: 0.731 µM [rising, full curve, poor fit]"
COc1ccc(-c2c([C@H]3[C@H]4C=CC[C@@H](C)[C@@H]4C(=O)N3Cc3ccccc3)ccc3ccccc23)cc1OC,–,"inconclusive: 4.47 µM [falling, partial curve, poor fit]"
Cc1cccc(C)c1-n1c(SCC(=O)N2CC(=O)Nc3ccccc32)nc2ccccc2c1=O,inactive,–
COc1ccc([N+](=O)[O-])c(S(=O)(=O)c2ccccc2)n1,inconclusive: 22.3%,–
CCN(CC)CCOC(=O)c1ccc(N/C=C(/C#N)c2nc(-c3ccc(OC)c(OC)c3)cs2)cc1,inactive,–
COc1ccc(-n2c(SCC(=O)N3CCOCC3)nnc2C(C)N2CCCCC2)cc1 (stereo not given),inconclusive: -3.58%,–
COc1ccc(C(=O)Nc2ccc3oc(Cc4ccc(Cl)cc4)nc3c2)cc1OC,–,"inconclusive: 29.1 µM [falling, single point]"
Cc1cc(NS(=O)(=O)c2ccc(Nc3nc(-c4ccc(O)cc4)cs3)cc2)no1,inactive,–
O=C(/C=C\Nc1ccccn1)c1ccccc1,inconclusive: 363%,–
CCCCNc1c(-c2ccc(OC)c(Sc3ccc(OC)cc3)c2)nc2ccc(Cl)cn12,inactive,–
CC(=O)N1CCC(Nc2ccc(C)cc2)CC1,inconclusive: 1.9%,–
COC(=O)c1cn(C(=O)c2ccc(C)cc2)c2ccccc12,inconclusive: -17.9%,–
C=CCn1c(Sc2ncc([N+](=O)[O-])s2)n[nH]c1=O,inconclusive: 24.8%,–
CN(C)CCn1cnc2c1c(=O)[nH]c(=O)n2Cc1ccccc1,inactive,–
CCC(=O)NCCCCCCNC(=O)CC,inconclusive: 4.89%,–
CN1C(=O)C2(OCC(COc3ccc(Cl)cc3)O2)c2ccccc21 (stereo not given),inconclusive: -0.862%,–
COc1cccc(CC(=O)N2CCN(c3ccccc3[N+](=O)[O-])CC2)c1,inconclusive: -15.6%,–
CC(C)NS(=O)(=O)c1ccc(CCC(=O)Nc2cc(Cl)ccc2Oc2ccccc2)cc1,–,"inconclusive: 13 µM [falling, partial curve]"
Nc1nonc1C(=O)N/N=C/c1ccc(-c2ccc(Cl)c(C(=O)O)c2)o1,inconclusive: -3.08%,–

Structure (SMILES),"activity change, negative = inhibition",Potency
CC(C)c1ccccc1OCCNC(=S)NC(=O)c1cccnc1,inconclusive: 3.38%,–
C=CCc1ccc(OCC(O)COCC)c(OC)c1 (stereo not given),inconclusive: -6.03%,–
Cn1cc(-c2nnnn2-c2cccc(C(F)(F)F)c2)c(C(F)(F)F)n1,inconclusive: -3.08%,–
CCc1ccc2oc(C(=O)Nc3nonc3C)c(C)c2c1,–,"inconclusive: 14.1 µM [falling, single point]"
COc1ccnc(NCc2ccc(Cl)cc2)c1C#N,inconclusive: 18.2%,–
CN(C(=O)CSc1cccc[n+]1[O-])c1ccccc1,inactive,–
Cc1ccc(NC(=O)c2cnn(-c3ccccc3)c2C)cc1,inconclusive: 2.14%,–
COc1ccc(NC(=O)C2CCCN2S(=O)(=O)c2cccc3cccnc23)c(OC)c1 (stereo not given),inconclusive: -1.97%,–
COc1cc2sc(C)nc2cc1C,inconclusive: 0.766%,–
Cc1cc(C(=O)NNC(=O)c2ccccc2O)c(C)o1,–,"inconclusive: 18.4 µM [falling, partial curve]"
CCn1c(=O)cc(OCC(=O)Nc2cccnc2)c2ccccc21,inconclusive: -9.33%,–
NC(=O)c1cccnc1Oc1ccc(Cl)cc1,inconclusive: 6.88%,–
COc1cccc2sc(=NC(=O)CCS(=O)(=O)c3ccc(C)cc3)n(C)c12,inactive,–
O=C(CS)Nc1ccc2ccccc2c1,–,"inconclusive: 15.8 µM [falling, single point]"
Cc1[nH]nc2c1C1(CCN(C(=O)OCc3ccccc3)CC1)C(C#N)=C(N)O2,–,"inconclusive: 10.3 µM [falling, partial curve]"
CCS(=O)(=O)NCCc1cc2ccc(C)cc2[nH]c1=O,inconclusive: 4.67%,–
COc1cc(/C=C/C(=O)OCC(=O)NC(=O)C2COc3ccccc3O2)ccc1OC(F)F (stereo not given),inactive,–
C[C@H](CO)N1C[C@H](C)[C@@H](CN(C)S(=O)(=O)c2cn(C)cn2)Oc2c(NC(=O)Nc3ccc4c(c3)OCO4)cccc2C1=O,inconclusive: -1.14%,–
O=S(=O)(NCCc1csc2nc(-c3ccc(F)cc3)nn12)c1ccc(Oc2ccccc2)cc1,inactive,–
CC(=O)c1sc(NC(=O)COc2ccc(C)c(C)c2)nc1C,–,"inconclusive: 10.3 µM [falling, partial curve, poor fit]"
Cc1[nH]nc2c1C(c1cccc(O)c1)C1=C(CC(C)(C)CC1=O)N2 (stereo not given),inconclusive: -0.224%,–
O=C(/C=C/c1ccc(-c2cccc([N+](=O)[O-])c2)o1)N1CCOCC1,–,"inconclusive: 31.6 µM [falling, single point]"
CN(c1ccccc1)c1nc(N)c([N+](=O)[O-])c(Nc2ccccc2F)n1,inconclusive: 5.74%,–
COCCNc1nc(SC)nc2sc3c(c12)CCN(C)C3,inactive,–
CCNC(=O)c1c(NC(=O)c2cc(-c3cc(C)ccc3O)n[nH]2)sc2c1CCCC2,inactive,–
O=C(CSc1nc2scc(-c3ccccc3)c2c(=O)[nH]1)NC1CCCCC1,inconclusive: 2.74%,–
Cc1ccc(CN2CCN(Cc3nc4ccccc4nc3C)CC2CCO)cc1 (stereo not given),–,"inconclusive: 35.5 µM [falling, partial curve, poor fit]"

# Laid out differently: 4 of the compounds above.
Structure (SMILES)	activity change, negative = inhibition	Potency
COc1ccc([N+](=O)[O-])c(S(=O)(=O)c2ccccc2)n1	inconclusive: 22.3%	–
CCN(CC)CCOC(=O)c1ccc(N/C=C(/C#N)c2nc(-c3ccc(OC)c(OC)c3)cs2)cc1	inactive	–
COc1ccc(-n2c(SCC(=O)N3CCOCC3)nnc2C(C)N2CCCCC2)cc1 (stereo not given)	inconclusive: -3.58%	–
COc1ccc(C(=O)Nc2ccc3oc(Cc4ccc(Cl)cc4)nc3c2)cc1OC	–	inconclusive: 29.1 µM [falling, single point]

# (cont.)

Structure (SMILES),"activity change, negative = inhibition",Potency
S=C1SCN(Cc2ccco2)CN1Cc1ccco1,–,"inconclusive: 35.5 µM [cytotoxic, single point]"
CNc1snc(C)c1C(=O)OCC(=O)N(C)Cc1ccccc1,inactive,–
O=C(CSc1nnnn1-c1ccccc1F)NNC(=O)c1ccco1,inactive,–
O=C(COC(=O)[C@@H]1CC(O)CN1S(=O)(=O)c1ccc(Cl)cc1)NC(=O)NCc1ccccc1 (stereo not given in full),inactive,–
COc1cc(/C=C/[N+](=O)[O-])ccc1OCc1cccc(C(=O)O)c1,inconclusive: -178%,–
N#C/C(=C(/O)CCl)c1nc2c(s1)CCc1ccccc1-2,inactive,–
Cn1c(N)c(C#N)c2c(c1=S)COC(C)(C)C2,inconclusive: 18.4%,–
CCOC(=O)CS(=O)(=O)c1nc(-c2ccc(F)cc2)cc(C(F)(F)F)n1,inconclusive: 20.2%,–
Cc1sc2nc(CSc3n[nH]c(N)n3)[nH]c(=O)c2c1C,–,"inconclusive: 35.5 µM [falling, partial curve, poor fit]"
COc1ccc(CN2CCN(C(=O)CCC(=O)Nc3nnc(C4CCCCC4)s3)CC2)cc1F,inconclusive: 15%,–
O=C(Nc1nnc(C2CC2)s1)c1ccc(Cl)nc1,inconclusive: -3.22%,–
Cc1cc(NC(=O)COc2ccccc2C#N)no1,inconclusive: 0.976%,–
Cc1nn(Cc2ccccc2)c(Cl)c1C(=O)NCc1ccco1,inactive,–
COc1ccc(-c2nc(C#N)c(N3CCOCC3)o2)cc1OC,inconclusive: -18.9%,–
COc1ccc(C2C(C#N)=C(N)Oc3c2ccc2cccnc32)cc1OC (stereo not given),–,"inconclusive: 31.6 µM [falling, single point]"
Cc1nc2ccc(S(=O)(=O)Nc3cc(-c4nc5cccnc5s4)ccc3C)cc2s1,inconclusive: -12.7%,–
COc1ccc(NC2c3ccccc3C(=O)N2Cc2ccccc2Cl)cc1OC (stereo not given),inconclusive: -12.2%,–
Cc1cccc(C)c1NC(=S)NC(=O)CCc1ccccc1,inconclusive: -7.2%,–
Cc1ccc(NC(=O)C2CC(=O)N(c3ccc4c(c3)OCCO4)C2)cc1S(=O)(=O)N(C)C (stereo not given),inconclusive: 3.29%,–
Cc1cc(C)cc(C(=O)NCC(=O)OCc2nc(N)nc(Nc3ccccc3C)n2)c1,inconclusive: -0.42%,–
Cn1c(CN2CCCCC2)nc2cc(NC(=O)c3ccccc3)ccc21,–,"inconclusive: 18.4 µM [falling, single point]"
COc1ccc(/C=C2\SC(=S)N(CCCC(=O)NNC(=O)c3ccccc3O)C2=O)cc1,–,"inconclusive: 0.794 µM [falling, full curve, poor fit]"
CCCCOP(=O)(c1ccc(N(C)C)cc1)C(Nc1ccccc1)c1ccccc1 (stereo not given),inconclusive: -12.8%,–
CN(Cc1cccc2cnccc12)C(=O)c1cc(COc2ccc(F)cc2F)on1,–,"inconclusive: 25.1 µM [falling, single point]"
CN(Cc1nnc(-c2ccc(F)cc2)o1)c1ccccc1,–,"inconclusive: 22.4 µM [falling, single point]"
Cc1ccccc1C(=O)NC(=S)Nc1ccc(S(=O)(=O)N2CCN(C)CC2)cc1,–,"inconclusive: 13 µM [falling, partial curve]"
